From publication doi:10.1101/2025.06.13.659133
Results are given in words; binding and its absence hold for the method and conditions named. Some entries that bind do so weakly or less than the wild type.

Sequences of proteins named here, by UniProt entry; tags and fusion partners are left off. Residues count along the entry.
UniProt P08476, 311-426: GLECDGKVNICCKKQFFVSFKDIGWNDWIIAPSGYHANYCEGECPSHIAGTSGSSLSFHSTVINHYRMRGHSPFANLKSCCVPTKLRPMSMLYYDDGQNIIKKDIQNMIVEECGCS
UniProt P19883, 30-317: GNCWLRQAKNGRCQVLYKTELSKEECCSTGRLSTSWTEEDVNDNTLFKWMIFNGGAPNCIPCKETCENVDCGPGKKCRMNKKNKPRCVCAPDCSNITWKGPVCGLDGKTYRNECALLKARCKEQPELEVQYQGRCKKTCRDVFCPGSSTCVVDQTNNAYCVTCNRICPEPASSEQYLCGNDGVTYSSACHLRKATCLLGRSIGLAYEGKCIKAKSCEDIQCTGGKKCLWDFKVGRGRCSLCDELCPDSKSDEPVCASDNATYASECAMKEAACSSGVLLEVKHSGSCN

Target: mature human activin A (human) (UniProt P08476)
Experiment: BLI

## follistatin-288 (from UniProt P19883-2 30-317)
  binding: binds
